Source: PubChem BioAssay AID2662 (National Center for Advancing Translational Sciences (NCATS), 2010)
The whole screen tested about 290,000 compounds, of which about 110 (0.038%) were called active. The inconclusive results got no clear call from the source; some entries with a clear call stand among them for comparison. Calls follow the shape of the dose curve; as a rule, active = well fitted inhibition curve with a large enough effect in the polarisation, with a control signal flat (not every such curve was filed as active); inconclusive = small, poorly fitted or top-dose-only effect, or effect the other way, or a change in a side signal; inactive = no such curve, though single readings can be large or run the other way; the % refers to the polarisation. A potency beside an inconclusive call is a rough fit, not a confirmed value. “Side channel” marks fits to a control or component signal instead of the main read-out.

Protein sequences, listed by entry. Tags and fused reporters are not part of them.
UniProt Q03164, whole entry, looked up: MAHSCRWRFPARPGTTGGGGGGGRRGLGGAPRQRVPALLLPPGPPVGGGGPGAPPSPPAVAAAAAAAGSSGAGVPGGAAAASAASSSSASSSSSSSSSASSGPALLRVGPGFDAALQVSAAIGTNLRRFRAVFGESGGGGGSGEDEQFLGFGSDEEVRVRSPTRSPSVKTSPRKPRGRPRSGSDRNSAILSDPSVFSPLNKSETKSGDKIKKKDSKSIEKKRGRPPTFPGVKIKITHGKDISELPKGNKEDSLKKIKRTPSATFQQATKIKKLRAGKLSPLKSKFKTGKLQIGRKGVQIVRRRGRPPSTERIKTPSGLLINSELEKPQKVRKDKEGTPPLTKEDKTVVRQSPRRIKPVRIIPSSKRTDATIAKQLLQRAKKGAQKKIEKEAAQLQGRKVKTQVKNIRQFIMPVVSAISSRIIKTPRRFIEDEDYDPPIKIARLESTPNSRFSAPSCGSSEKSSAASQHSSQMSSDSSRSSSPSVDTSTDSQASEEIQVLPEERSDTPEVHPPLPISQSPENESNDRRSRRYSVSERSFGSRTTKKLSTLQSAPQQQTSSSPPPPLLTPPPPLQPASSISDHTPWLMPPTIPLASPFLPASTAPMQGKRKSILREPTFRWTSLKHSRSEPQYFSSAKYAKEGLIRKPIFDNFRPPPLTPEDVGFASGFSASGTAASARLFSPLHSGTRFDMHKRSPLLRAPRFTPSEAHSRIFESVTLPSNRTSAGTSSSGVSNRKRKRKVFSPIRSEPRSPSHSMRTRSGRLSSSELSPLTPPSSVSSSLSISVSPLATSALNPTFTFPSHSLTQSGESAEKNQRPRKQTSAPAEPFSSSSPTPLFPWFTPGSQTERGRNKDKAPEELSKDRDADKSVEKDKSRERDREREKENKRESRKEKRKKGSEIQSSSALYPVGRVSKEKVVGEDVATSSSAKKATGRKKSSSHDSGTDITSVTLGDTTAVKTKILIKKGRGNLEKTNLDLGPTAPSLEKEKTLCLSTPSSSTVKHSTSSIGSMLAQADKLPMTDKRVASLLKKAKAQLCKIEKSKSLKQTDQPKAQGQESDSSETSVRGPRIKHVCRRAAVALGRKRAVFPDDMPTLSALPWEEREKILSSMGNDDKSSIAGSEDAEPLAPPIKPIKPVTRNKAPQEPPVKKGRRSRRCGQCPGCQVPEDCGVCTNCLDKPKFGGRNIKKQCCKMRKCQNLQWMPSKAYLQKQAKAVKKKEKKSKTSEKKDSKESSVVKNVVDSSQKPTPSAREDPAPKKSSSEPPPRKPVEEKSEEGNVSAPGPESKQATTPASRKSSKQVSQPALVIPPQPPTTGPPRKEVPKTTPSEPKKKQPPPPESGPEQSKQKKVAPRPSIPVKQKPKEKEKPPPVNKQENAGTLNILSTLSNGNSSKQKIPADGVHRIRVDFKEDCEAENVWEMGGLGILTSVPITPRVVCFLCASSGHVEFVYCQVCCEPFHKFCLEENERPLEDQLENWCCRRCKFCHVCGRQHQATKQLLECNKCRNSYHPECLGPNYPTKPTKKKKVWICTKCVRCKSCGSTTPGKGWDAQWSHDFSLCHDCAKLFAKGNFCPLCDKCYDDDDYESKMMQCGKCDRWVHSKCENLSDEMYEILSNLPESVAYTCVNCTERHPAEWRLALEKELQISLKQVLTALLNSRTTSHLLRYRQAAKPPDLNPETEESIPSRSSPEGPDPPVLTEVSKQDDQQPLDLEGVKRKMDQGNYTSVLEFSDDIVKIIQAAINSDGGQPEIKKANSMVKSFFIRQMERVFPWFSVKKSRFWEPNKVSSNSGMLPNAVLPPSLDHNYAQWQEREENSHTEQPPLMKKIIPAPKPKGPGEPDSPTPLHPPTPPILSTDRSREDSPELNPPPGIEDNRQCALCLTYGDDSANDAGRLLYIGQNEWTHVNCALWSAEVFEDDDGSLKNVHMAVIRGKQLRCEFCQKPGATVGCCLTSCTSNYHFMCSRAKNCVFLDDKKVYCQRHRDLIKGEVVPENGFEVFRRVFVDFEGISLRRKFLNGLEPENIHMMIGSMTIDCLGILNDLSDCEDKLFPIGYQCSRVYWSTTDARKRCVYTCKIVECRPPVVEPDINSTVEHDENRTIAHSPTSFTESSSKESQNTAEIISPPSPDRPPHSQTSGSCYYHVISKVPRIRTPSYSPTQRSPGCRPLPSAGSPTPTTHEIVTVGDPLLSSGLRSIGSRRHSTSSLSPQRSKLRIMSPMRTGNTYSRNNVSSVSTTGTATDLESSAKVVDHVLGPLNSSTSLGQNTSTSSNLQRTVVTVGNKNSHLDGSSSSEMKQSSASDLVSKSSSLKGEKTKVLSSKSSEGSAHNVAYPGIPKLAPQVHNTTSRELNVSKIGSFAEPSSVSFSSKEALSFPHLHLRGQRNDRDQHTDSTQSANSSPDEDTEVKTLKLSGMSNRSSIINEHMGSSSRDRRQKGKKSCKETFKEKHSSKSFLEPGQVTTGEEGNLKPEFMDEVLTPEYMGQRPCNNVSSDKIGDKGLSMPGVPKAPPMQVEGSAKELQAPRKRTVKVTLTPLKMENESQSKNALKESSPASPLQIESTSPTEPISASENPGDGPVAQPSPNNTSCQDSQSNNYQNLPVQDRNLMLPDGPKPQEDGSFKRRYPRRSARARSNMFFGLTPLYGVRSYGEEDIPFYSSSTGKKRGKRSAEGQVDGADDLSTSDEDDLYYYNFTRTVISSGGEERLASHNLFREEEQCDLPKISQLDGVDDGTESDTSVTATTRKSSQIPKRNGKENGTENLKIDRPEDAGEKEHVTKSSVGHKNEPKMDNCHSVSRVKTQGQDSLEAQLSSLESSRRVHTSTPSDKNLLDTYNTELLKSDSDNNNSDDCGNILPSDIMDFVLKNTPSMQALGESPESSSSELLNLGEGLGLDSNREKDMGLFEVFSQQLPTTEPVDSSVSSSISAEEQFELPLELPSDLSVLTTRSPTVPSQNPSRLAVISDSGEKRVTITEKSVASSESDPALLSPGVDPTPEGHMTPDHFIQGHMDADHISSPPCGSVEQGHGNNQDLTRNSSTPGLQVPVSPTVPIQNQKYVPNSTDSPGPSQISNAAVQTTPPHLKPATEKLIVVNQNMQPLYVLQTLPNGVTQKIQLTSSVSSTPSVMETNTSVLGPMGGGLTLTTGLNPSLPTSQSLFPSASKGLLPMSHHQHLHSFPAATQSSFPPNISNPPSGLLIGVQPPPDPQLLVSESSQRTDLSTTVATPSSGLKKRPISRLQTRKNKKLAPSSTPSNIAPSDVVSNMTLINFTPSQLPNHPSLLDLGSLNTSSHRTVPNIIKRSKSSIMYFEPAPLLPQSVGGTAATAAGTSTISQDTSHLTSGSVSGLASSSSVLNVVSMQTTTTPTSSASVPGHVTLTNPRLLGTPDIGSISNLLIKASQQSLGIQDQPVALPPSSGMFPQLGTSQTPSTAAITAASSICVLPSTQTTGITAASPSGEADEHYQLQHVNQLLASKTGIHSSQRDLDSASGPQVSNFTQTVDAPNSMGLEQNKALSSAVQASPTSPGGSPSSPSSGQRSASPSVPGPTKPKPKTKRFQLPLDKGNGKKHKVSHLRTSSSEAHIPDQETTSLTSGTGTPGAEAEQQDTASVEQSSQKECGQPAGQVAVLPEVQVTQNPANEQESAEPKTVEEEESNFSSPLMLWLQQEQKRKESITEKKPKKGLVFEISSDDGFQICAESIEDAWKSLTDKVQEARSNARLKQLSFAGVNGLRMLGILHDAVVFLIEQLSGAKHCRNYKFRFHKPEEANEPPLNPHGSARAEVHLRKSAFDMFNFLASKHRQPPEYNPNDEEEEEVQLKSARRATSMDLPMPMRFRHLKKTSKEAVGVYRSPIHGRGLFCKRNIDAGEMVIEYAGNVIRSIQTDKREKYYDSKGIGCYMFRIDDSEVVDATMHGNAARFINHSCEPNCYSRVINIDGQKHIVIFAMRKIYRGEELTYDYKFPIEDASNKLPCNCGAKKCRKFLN

What follows are compounds tested against Histone-lysine N-methyltransferase 2A (Homo sapiens) (UniProt Q03164) (assay: qHTS Fluorescence Polarization Assay for Inhibitors of MLL CXXC domain - DNA interaction). Details: MLL-CXXC / FITC-HOXA9 DNA fluorescence polarization; series mostly up to 115 µM.
Summary of the method: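 Steps: dispense CXXC domain solution (7 uM) → pin compounds or unlabeled HOX-A9 DNA control → 5 min ambient → add FLSN-HOX-A9 solution (50 nM) → spin → 30 min ambient → fluorescence polarization. Tris pH 7.5/NaCl/DTT/BSA buffer.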
Potency is read from the fitted curve at half-maximal effect.

| SMILES | Potency |
| --- | --- |
| CCN1CCc2nc3ccccc3c(C(=O)Nc3ccc(F)cc3)c2C1 | inactive |
| CCN(CC)c1ccc(N=Cc2cc(Br)ccc2O)cc1 | inconclusive: 35.5 µM [fluorescent, side channel, partial curve] |
| COc1cccc(C(C(=O)NC2CCCCC2)N(C(=O)c2ccco2)c2ccccc2OC)c1 (configuration not stated) | inactive |
| CCOC(=O)c1c(C)c(/C=N/Nc2ccccc2)n(C)c1C | inconclusive: 1.41 µM [inhibitor, full curve, poor fit] |
| O=C1/C(=C\c2cccs2)CCC/C1=C/c1cccs1 | inactive |
| CCCC(=O)Nc1nnc(-c2cccc(OCC)c2)s1 | inactive |
| Cc1ccc(Nc2c(-c3ccc(C)o3)nc3ncccn23)cc1 | inconclusive: 10 µM [inhibitor, partial curve] |
| CCOC(=O)N1CCN(C(=S)NC(=O)c2ccc(F)c(F)c2)CC1 | inactive |
| Cc1onc(-c2ccccc2)c1C(=O)N1CCN(Cc2ccc3c(c2)OCO3)CC1 | inconclusive: 79.4 µM [fluorescent, side channel, single point] |
| Cc1ccc(NC(=O)NCCCN2CCCC2=O)cc1C | inconclusive: 10 µM [quencher, side channel, partial curve] |
| O=C1CSC(c2ccc(F)cc2)N1c1c(F)cccc1F (configuration not stated) | inactive |
| CCN1CCc2nc3sc(C(=O)Nc4cccnc4Cl)c(N)c3cc2C1 | inconclusive: 63.1 µM [quencher, side channel, single point] |
| Cn1cccc1/C=C1\SC(=S)N(Nc2ccccc2)C1=O | inconclusive: 25.1 µM [inhibitor, partial curve] |
| CC(=O)c1nnn(-c2ccc([N+](=O)[O-])cc2)c1C | inconclusive: 282 µM [fluorescent, side channel, partial curve, poor fit] |
| COc1ccc(NC(=O)C2CCCN(CCCc3ccccc3)C2)cc1OCC(C)C (configuration not stated) | inconclusive: 39.8 µM [quencher, side channel, single point] |
| COc1ccc(C2=Nn3c(nnc3-c3ccco3)SC2)cc1OC | inactive |
| COc1ccc(/C=N/NC(=O)c2ccccc2OC)cc1COc1ccccc1[N+](=O)[O-] | inconclusive: 11.2 µM [fluorescent, side channel, single point] |
| CC#CC(=O)N1CCC(n2nccc2NC(=O)c2ccc3c(c2)OCO3)CC1 | inconclusive: 12.6 µM [fluorescent, side channel, single point] |
| CC(=O)N/C(=C\c1ccccc1)C(=O)OCc1ccccc1 | inconclusive: 8.91 µM [quencher, side channel, partial curve] |
| CN(CCC#N)C(=O)c1cc2c(Cl)nc3ccccc3c2s1 | inconclusive: 63.1 µM [fluorescent, single point] |
| C=C(Cl)COc1ccc2c(CCCC)cc(=O)oc2c1 | inactive |

| SMILES | Potency |
| --- | --- |
| N#C/C(=C\c1cccnc1)C(=O)Nc1ccc(C(=O)O)cc1 | inconclusive: 89.1 µM [inhibitor, single point] |
| COc1ccc(OC)c(NC(=O)CSc2nncc(=O)n2N)c1 | inconclusive: 14.1 µM [fluorescent, side channel, single point] |
| CN(C)S(=O)(=O)c1ccc(Cl)c(C(=O)NC2=NCCS2)c1 | inconclusive: 8.91 µM [inhibitor, single point] |
| Cc1cc(C)c2c(c1)-c1c(ssc1=S)C(C)(C)N2C(=O)CSc1nncn1C | inactive |
| CCOc1cc(CNc2ccc(CNc3ncn[nH]3)cc2)ccc1OCc1ccccc1 | inconclusive: 14.1 µM [inhibitor, single point] |
| O=C(COc1ccccc1Br)NC1CCCC1 | inconclusive: 25.1 µM [quencher, side channel, partial curve, poor fit] |
| COC(=O)c1ccc(N2NC(=O)/C(=C/c3ccc(-c4ccc(Cl)c(C(=O)O)c4)o3)C2=O)cc1 | inconclusive: 70.8 µM [inhibitor, single point] |
| O=C(O)COc1ccccc1/C=N/NC(=O)c1cccc(S(=O)(=O)Nc2cccc(Cl)c2)c1 | inconclusive: 17.8 µM [quencher, side channel, partial curve] |
| Cc1ccc2nsnc2c1NS(=O)(=O)c1c(C)ccc2nsnc12 | inactive |
| CCCCC(=O)NC(c1ccccc1)c1ccc2cccnc2c1O (configuration not stated) | inconclusive: 11.2 µM [inhibitor, partial curve] |
| N#CCC(=O)NC1CCC(CC2CCC(NC(=O)CC#N)CC2)CC1 (configuration not stated) | inconclusive: 8.91 µM [fluorescent, side channel, single point] |
| COc1ccc(-c2[nH]n(-c3ccc([N+](=O)[O-])cc3)c(=O)c2C=NCc2ccc(F)cc2)cc1 | inactive |
| Cc1cccc(C)c1NC(=O)C(=O)c1cn(C)c2ccccc12 | inactive |
| COc1cc(/C=C2/NC(=O)NC2=O)cc(Br)c1OCc1ccc(C(=O)O)cc1 | inconclusive: 39.8 µM [inhibitor, single point] |
| COc1ccccc1-c1c(C)oc2c(CN3CCOCC3)c(O)ccc2c1=O | inactive |
| CCCNC(=O)CSc1n[nH]c(=O)n1CCc1ccccc1 | inconclusive: 8.91 µM [fluorescent, single point] |
| CCCCCCN1C=CC=C/C1=C\C=C(C#N)C#N | inconclusive: 35.5 µM [fluorescent, side channel, single point] |
| COc1cc(N=Cc2c(O)c3ccccc3oc2=O)c(OC)cc1Cl | inconclusive: 44.7 µM [fluorescent, side channel, partial curve] |
| N#C/C(=C\c1ccc(-c2ccccc2C(=O)O)o1)c1nc2ccccc2[nH]1 | inconclusive: 31.6 µM [fluorescent, side channel, partial curve] |
| Cc1ccc(-c2cc(C(F)F)nc(N3CCC(C)CC3)n2)cc1 | inactive |
| O=C(COc1ccccc1)Nc1nc2cc3c(cc2s1)OCCO3 | inconclusive: 14.1 µM [quencher, side channel, single point] |

Nine compounds already listed, arranged by molecular weight, rising:

| SMILES | Potency |
| --- | --- |
| CC(=O)N/C(=C\c1ccccc1)C(=O)OCc1ccccc1 | inconclusive: 8.91 µM [quencher, side channel, partial curve] |
| Cc1ccc(Nc2c(-c3ccc(C)o3)nc3ncccn23)cc1 | inconclusive: 10 µM [inhibitor, partial curve] |
| Cc1cccc(C)c1NC(=O)C(=O)c1cn(C)c2ccccc12 | inactive |
| O=C1CSC(c2ccc(F)cc2)N1c1c(F)cccc1F (configuration not stated) | inactive |
| COc1ccc(OC)c(NC(=O)CSc2nncc(=O)n2N)c1 | inconclusive: 14.1 µM [fluorescent, side channel, single point] |
| CCN(CC)c1ccc(N=Cc2cc(Br)ccc2O)cc1 | inconclusive: 35.5 µM [fluorescent, side channel, partial curve] |
| COc1ccc(NC(=O)C2CCCN(CCCc3ccccc3)C2)cc1OCC(C)C (configuration not stated) | inconclusive: 39.8 µM [quencher, side channel, single point] |
| COc1ccc(/C=N/NC(=O)c2ccccc2OC)cc1COc1ccccc1[N+](=O)[O-] | inconclusive: 11.2 µM [fluorescent, side channel, single point] |
| Cc1cc(C)c2c(c1)-c1c(ssc1=S)C(C)(C)N2C(=O)CSc1nncn1C | inactive |
